In the supplement of paper PMC10849652:
Some of the results follow.

Sequences of proteins named here, by UniProt entry; tags and fusion partners are left off. A change or cut given only in a name is not applied to a line headed by its entry.
UniProt Q9BX68: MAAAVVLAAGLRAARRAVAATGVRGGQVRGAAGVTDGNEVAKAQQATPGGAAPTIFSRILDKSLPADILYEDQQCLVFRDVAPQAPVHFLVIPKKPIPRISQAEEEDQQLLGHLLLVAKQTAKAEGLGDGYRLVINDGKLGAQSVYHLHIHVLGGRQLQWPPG
UniProt Q0VDF9: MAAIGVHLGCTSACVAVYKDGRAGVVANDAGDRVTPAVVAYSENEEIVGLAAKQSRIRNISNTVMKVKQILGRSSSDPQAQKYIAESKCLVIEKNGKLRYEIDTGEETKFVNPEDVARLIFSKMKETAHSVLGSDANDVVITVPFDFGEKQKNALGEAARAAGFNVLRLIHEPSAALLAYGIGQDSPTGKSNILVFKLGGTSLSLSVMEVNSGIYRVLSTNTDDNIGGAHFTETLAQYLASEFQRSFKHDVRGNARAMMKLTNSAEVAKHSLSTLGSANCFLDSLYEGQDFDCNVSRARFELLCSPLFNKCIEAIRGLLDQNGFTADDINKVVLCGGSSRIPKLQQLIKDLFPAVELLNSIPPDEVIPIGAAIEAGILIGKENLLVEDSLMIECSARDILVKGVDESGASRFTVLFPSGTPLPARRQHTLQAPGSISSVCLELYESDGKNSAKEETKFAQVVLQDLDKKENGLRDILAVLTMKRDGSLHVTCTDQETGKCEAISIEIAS
UniProt P00492: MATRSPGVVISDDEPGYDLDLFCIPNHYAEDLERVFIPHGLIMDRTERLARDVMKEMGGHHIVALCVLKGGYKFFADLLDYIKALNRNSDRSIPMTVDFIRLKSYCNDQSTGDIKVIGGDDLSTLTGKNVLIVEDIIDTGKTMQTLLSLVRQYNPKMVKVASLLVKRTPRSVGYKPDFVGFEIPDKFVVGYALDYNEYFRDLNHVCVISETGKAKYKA
UniProt P34931, whole entry, looked up: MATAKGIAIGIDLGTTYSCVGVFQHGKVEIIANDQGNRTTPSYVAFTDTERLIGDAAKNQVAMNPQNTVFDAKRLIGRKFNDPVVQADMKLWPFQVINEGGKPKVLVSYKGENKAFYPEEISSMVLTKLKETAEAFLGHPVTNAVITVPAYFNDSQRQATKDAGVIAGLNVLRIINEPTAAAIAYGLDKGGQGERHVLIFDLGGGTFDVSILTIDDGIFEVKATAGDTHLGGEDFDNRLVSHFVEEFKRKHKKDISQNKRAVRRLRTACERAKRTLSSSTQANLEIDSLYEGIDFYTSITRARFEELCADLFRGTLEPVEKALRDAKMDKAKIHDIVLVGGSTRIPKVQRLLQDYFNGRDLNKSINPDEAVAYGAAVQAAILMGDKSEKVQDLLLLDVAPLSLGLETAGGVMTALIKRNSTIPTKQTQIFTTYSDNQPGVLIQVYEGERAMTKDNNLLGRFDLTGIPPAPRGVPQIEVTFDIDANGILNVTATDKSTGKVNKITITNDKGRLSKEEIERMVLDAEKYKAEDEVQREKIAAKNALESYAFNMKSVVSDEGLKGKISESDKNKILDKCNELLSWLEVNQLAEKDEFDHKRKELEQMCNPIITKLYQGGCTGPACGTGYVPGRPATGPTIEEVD
UniProt P08397: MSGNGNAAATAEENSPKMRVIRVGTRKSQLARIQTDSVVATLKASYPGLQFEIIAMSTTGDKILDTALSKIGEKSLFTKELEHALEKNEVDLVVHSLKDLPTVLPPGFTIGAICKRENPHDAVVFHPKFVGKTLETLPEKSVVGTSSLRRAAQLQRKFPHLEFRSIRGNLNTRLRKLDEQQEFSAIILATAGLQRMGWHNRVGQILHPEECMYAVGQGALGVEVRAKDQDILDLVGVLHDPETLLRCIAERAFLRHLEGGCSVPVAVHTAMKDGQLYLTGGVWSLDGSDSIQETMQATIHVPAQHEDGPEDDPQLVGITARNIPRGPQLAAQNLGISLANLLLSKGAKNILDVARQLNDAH
UniProt P14625, whole entry, looked up: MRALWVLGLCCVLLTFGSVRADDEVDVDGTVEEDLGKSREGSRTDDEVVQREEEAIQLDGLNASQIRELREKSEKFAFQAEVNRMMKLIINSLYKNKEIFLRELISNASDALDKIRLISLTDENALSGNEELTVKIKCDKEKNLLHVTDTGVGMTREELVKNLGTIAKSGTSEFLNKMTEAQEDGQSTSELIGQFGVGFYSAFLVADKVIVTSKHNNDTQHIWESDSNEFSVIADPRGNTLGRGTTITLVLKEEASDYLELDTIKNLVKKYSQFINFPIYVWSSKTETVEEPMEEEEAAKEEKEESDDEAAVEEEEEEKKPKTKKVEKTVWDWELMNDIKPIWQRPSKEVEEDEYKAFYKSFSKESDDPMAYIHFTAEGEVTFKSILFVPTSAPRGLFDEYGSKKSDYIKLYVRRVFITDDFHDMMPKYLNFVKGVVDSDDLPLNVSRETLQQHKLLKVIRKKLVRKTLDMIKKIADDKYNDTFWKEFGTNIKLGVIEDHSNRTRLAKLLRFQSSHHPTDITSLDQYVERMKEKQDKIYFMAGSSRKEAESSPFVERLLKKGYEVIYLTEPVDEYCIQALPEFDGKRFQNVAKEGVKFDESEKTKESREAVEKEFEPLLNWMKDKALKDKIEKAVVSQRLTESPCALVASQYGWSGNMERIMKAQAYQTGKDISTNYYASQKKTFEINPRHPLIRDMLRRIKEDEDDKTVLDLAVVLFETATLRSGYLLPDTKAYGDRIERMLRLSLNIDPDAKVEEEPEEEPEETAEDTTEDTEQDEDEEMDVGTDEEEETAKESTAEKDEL
UniProt Q9NQE9: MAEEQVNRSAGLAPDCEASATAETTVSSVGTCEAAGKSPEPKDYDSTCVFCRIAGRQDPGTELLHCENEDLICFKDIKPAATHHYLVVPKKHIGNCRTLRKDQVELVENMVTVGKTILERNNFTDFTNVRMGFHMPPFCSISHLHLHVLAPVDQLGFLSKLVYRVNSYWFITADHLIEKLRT
UniProt P31942: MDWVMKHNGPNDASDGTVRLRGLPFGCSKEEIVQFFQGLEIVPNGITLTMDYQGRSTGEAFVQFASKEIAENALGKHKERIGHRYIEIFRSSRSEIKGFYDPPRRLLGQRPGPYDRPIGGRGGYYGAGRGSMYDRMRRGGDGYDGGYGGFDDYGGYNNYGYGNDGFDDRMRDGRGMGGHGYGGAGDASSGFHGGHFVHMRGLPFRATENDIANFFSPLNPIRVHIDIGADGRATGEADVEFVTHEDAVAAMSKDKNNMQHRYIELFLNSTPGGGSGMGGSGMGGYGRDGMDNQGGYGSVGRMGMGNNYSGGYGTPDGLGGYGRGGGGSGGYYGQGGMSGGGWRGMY
UniProt Q9NX55: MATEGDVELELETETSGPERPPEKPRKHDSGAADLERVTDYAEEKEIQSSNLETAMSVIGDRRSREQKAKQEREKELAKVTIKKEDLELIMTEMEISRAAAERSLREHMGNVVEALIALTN
UniProt P38646: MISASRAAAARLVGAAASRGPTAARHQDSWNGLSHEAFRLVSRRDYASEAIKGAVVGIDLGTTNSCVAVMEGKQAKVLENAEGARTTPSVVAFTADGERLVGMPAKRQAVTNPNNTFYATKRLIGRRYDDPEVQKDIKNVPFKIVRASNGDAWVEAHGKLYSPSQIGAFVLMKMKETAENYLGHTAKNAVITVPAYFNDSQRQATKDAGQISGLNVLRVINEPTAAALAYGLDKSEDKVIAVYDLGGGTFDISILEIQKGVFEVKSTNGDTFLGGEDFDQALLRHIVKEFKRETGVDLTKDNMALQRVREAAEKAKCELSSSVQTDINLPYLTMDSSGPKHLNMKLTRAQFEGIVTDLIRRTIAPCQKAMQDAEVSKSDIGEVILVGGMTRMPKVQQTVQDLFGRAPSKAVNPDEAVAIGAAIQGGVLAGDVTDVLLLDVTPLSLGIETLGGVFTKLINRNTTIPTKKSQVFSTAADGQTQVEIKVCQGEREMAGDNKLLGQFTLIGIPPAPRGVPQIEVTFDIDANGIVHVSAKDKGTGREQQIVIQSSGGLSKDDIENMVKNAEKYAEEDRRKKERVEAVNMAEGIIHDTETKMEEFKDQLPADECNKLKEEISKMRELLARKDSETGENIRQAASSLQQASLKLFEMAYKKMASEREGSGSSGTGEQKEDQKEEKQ
UniProt Q9Y547: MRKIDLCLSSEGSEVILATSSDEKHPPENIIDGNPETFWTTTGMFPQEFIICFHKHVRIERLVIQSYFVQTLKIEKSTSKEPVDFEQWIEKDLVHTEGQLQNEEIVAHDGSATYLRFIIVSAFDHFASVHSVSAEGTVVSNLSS
UniProt P51991: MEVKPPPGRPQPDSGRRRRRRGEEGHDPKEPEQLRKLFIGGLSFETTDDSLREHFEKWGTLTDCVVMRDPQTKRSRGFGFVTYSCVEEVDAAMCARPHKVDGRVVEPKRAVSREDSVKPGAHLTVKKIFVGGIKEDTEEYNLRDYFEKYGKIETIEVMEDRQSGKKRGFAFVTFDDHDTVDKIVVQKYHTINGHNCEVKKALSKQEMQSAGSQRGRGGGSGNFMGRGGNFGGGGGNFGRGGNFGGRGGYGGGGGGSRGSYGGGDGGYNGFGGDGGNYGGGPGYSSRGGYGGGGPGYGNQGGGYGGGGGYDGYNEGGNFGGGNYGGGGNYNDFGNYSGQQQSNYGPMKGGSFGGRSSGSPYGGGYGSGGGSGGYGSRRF
UniProt P10809, whole entry, looked up: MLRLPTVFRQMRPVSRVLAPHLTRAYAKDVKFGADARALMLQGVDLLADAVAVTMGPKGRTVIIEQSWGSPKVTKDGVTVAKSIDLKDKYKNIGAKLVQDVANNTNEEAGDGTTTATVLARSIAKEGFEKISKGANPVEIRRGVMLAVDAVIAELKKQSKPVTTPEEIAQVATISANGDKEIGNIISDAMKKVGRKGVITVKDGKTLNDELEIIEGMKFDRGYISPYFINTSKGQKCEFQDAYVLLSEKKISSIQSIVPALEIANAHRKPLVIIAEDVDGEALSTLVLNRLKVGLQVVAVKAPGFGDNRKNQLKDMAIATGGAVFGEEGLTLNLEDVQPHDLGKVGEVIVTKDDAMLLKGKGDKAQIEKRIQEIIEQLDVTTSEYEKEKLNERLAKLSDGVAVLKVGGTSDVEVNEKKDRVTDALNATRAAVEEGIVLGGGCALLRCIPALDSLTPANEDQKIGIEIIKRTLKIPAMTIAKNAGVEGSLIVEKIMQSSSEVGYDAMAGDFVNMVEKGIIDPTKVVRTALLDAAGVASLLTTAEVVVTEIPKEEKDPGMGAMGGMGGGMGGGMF
UniProt Q99729: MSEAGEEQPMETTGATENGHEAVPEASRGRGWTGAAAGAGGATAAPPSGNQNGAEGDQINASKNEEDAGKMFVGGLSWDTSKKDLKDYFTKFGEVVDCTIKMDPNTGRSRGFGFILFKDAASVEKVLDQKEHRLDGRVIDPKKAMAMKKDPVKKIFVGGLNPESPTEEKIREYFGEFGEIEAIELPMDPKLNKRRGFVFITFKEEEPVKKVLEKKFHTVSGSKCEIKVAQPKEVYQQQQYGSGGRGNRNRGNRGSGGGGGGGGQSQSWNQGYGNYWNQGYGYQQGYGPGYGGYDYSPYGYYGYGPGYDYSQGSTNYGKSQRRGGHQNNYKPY
UniProt P11021: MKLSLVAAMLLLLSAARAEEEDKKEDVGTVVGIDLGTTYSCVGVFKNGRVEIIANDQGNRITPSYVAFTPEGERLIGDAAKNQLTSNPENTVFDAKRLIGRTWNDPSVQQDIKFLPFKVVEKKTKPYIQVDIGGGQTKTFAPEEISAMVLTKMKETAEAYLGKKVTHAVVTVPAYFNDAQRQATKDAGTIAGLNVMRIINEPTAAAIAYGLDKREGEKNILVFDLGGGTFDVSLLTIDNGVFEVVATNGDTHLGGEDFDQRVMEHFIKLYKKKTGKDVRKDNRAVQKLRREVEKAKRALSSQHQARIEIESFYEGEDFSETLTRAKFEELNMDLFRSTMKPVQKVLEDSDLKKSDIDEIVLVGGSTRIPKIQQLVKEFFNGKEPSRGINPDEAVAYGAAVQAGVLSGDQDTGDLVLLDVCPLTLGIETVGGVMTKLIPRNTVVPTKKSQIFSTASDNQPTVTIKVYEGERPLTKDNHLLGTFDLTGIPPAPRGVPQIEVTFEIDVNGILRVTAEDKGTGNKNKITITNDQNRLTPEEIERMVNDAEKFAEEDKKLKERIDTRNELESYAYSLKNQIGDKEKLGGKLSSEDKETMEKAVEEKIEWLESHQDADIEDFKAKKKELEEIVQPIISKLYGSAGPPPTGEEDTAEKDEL
UniProt P31937: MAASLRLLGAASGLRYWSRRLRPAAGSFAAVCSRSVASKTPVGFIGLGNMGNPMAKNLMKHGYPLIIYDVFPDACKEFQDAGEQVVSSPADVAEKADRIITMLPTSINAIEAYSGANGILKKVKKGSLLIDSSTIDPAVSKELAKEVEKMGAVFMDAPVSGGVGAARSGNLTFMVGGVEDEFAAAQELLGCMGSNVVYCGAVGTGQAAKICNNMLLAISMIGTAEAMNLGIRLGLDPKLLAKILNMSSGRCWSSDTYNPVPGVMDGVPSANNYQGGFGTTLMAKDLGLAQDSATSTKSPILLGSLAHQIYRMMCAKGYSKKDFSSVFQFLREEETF

Experiments:
Assay in all cases: log2 fold change, soluble protein after heating vs DMSO (PISA); higher = thermal stabilisation; K562 cells, 10 uM, 30 min; active = over 0.2 and 3.5 SD of the protein, either way, in both replicates (recomputed)
[1] = compound: CN1CCN(CCOc2cc(OC3CCOCC3)c3c(Nc4c(Cl)ccc5c4OCO5)ncnc3c2)CC1 [saracatinib]
Outline: (§1)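 K562 cells at 2×10^6 cells/mL were treated for 30 min with 10 μM compound, and aliquots were heated for 3 min over 48°C-58°C before pooling. Extraction used PBS with 0.5% NP-40 at 4°C, and soluble protein was the supernatant after 21,000xg for 90 min, measured by TMTpro 16plex LC-MS/MS with channel sums equalised. Thermal stability values, relative to control samples and from duplicates, are log2 fold changes.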

[2] = compound: CN1CCN(c2nc(C3=C(c4c[nH]c5ccccc45)C(=O)NC3=O)c3ccccc3n2)CC1 [sotrastaurin]
Outline: as §1

[3] = compound: CN1CC[C@H](c2c(O)cc(O)c3c(=O)cc(-c4ccccc4Cl)oc23)[C@H](O)C1 [alvocidib]
Outline: as §1

[4] = compound: CN1CCc2c(c3ccccc3n2Cc2ccc(C(=O)NO)cc2)C1 [Tubastatin A]
Outline: as §1

[5] = compound: CNC(=O)C1=CC=CC=C1NC2=NC(=NC=C2Cl)NC3=C(C=C(C=C3)N4CCOCC4)OC
Outline: as §1

[6] = compound: CNC(=O)c1ccc(Nc2ncc(C(F)(F)F)c(NCc3nccnc3N(C)S(C)(=O)=O)n2)cc1 [defactinib]
Outline: as §1

[7] = compound: CNCc1ccc(-c2[nH]c3cc(F)cc4c3c2CCNC4=O)cc1 [rucaparib]
Outline: as §1

[8] = compound: CNc1nc(-c2ccc3c(N)n[nH]c3c2)cc(N2C[C@@H](C(=O)NC3CCCCC3)CC[C@H]2C)n1
Outline: as §1

[9] = compound: COC(=O)N[C@@H](C)CNc1nccc(-c2cn(C(C)C)nc2-c2cc(Cl)cc(NS(C)(=O)=O)c2F)n1 [encorafenib]
Outline: as §1

[10] = compound: COC(=O)[C@H](CCSC)NC(=O)C1=C(C=C(C=C1)NC[C@H](CS)N)C2=CC=CC=C2
Outline: as §1

Measured: log2 fold change

HGH1 (UniProt Q9BTY7)
inactive: [1] -0.125 | [2] -0.111 | [3] 0.012 | [4] 0.076 | [5] -0.01 | [6] 0.025 | [7] 0.278 | [8] -0.058 | [9] 0.151 | [10] -0.064

HSPH1 (UniProt Q92598)
inactive: [1] 0 | [2] -0.024 | [3] -0.019 | [4] -0.003 | [5] 0.062 | [6] -0.037 | [7] 0.036 | [8] -0.018 | [9] 0.034 | [10] 0.004

HINT2 (UniProt Q9BX68)
inactive: [1] -0.071 | [2] 0.016 | [3] -0.166 | [4] 0.048 | [5] 0.034 | [6] 0.04 | [7] 0 | [8] -0.122 | [9] -0.088 | [10] 0.07

HSPBP1 isoform 3 (UniProt Q9NZL4)
inactive: [1] 0.001 | [2] -0.044 | [3] -0.036 | [4] -0.01 | [5] 0.073 | [6] -0.092 | [7] 0.01 | [8] 0.02 | [9] 0.038 | [10] -0.042

HSPA14 (UniProt Q0VDF9)
inactive: [1] -0.045 | [2] -0.131 | [3] -0.022 | [4] 0.011 | [5] -0.05 | [6] -0.016 | [7] 0.14 | [8] 0.014 | [9] 0.102 | [10] -0.058

HNRNPM (UniProt P52272)
inactive: [1] -0.045 | [2] -0.163 | [3] 0.043 | [4] 0.094 | [5] 0.043 | [6] 0.067 | [7] 0.358 | [8] 0.015 | [9] 0.169 | [10] -0.01

HPRT1 (UniProt P00492)
inactive: [1] 0.05 | [2] 0.03 | [3] -0.046 | [4] -0.018 | [5] 0.027 | [6] -0.004 | [7] -0.047 | [8] -0.054 | [9] -0.004 | [10] 0.005

HSP90AB1 (UniProt P08238)
inactive: [1] 0.013 | [2] -0.01 | [3] -0.075 | [4] -0.002 | [5] 0.045 | [6] -0.029 | [7] -0.065 | [8] -0.001 | [9] 0.04 | [10] -0.003

HSPA1L (UniProt P34931)
inactive: [1] 0.096 | [2] -0.024 | [3] -0.228 | [4] 0.115 | [5] 0.034 | [6] -0.015 | [7] 0.018 | [8] -0.166 | [9] -0.049 | [10] -0.019

HMBS (UniProt P08397)
inactive: [1] 0.031 | [2] 0.027 | [3] 0.008 | [4] -0.008 | [5] -0.035 | [6] -0.004 | [7] -0.035 | [8] -0.013 | [9] -0.016 | [10] 0.019

HSP90B1 (UniProt P14625)
inactive: [1] -0.014 | [2] 0.016 | [3] 0.004 | [4] -0.011 | [5] -0.037 | [6] -0.005 | [7] -0.041 | [8] 0.003 | [9] 0.012 | [10] 0.01

HINT3 (UniProt Q9NQE9)
inactive: [1] -0.009 | [2] -0.005 | [3] -0.024 | [4] 0.018 | [5] -0.037 | [6] -0.039 | [7] 0.029 | [8] 0.007 | [9] -0.037 | [10] 0.037

HNRNPH3 (UniProt P31942)
inactive: [1] 0.041 | [2] -0.015 | [3] 0.214 | [4] 0.157 | [5] -0.04 | [6] 0.046 | [7] 0.367 | [8] 0.015 | [9] 0.072 | [10] -0.012

HNRNPU (UniProt Q00839)
inactive: [1] -0.158 | [2] -0.038 | [3] 0.055 | [4] 0.21 | [5] -0.097 | [6] 0.247 | [7] 0.156 | [8] 0.078 | [9] 0.106 | [10] -0.069

Taken from the entries so far (two entries):
HSPA1L (UniProt P34931)
inactive: [1] 0.096 | [2] -0.024 | [3] -0.228 | [4] 0.115 | [5] 0.034 | [6] -0.015 | [7] 0.018 | [8] -0.166 | [9] -0.049 | [10] -0.019

HMBS (UniProt P08397)
inactive: [1] 0.031 | [2] 0.027 | [3] 0.008 | [4] -0.008 | [5] -0.035 | [6] -0.004 | [7] -0.035 | [8] -0.013 | [9] -0.016 | [10] 0.019

Remaining list, next part

HYPK (UniProt Q9NX55)
inactive: [1] -0.028 | [2] 0.033 | [3] -0.08 | [4] 0.02 | [5] 0.048 | [6] -0.001 | [7] -0.072 | [8] -0.004 | [9] -0.031 | [10] -0.019

IARS2 (UniProt Q9NSE4)
inactive: [1] 0.045 | [2] 0.022 | [3] -0.004 | [4] -0.026 | [5] 0.005 | [6] -0.02 | [7] -0.014 | [8] -0.035 | [9] -0.02 | [10] 0.001

HSPA9 (UniProt P38646)
inactive: [1] 0.031 | [2] 0.023 | [3] 0.009 | [4] -0.025 | [5] 0.054 | [6] 0.014 | [7] -0.004 | [8] -0.044 | [9] -0.027 | [10] 0.037

IDE (UniProt P14735)
inactive: [1] -0.08 | [2] -0.001 | [3] -0.109 | [4] 0.023 | [5] -0.031 | [6] -0.028 | [7] 0.029 | [8] 0.023 | [9] 0.009 | [10] -0.031

HSPA6 (UniProt P17066)
inactive: [1] 0.04 | [2] 0.061 | [3] 0.027 | [4] -0.012 | [5] 0.038 | [6] 0.03 | [7] 0.001 | [8] -0.081 | [9] -0.047 | [10] 0.037

HSPB11 (UniProt Q9Y547)
inactive: [1] 0.037 | [2] 0.026 | [3] -0.02 | [4] 0.145 | [5] 0.133 | [6] -0.12 | [7] -0.016 | [8] 0.037 | [9] -0.057 | [10] 0.014

HIBCH (UniProt Q6NVY1)
inactive: [1] -0.025 | [2] -0.009 | [3] -0.093 | [4] 0.041 | [5] 0.036 | [6] -0.034 | [7] -0.037 | [8] 0.042 | [9] -0.015 | [10] -0.029

HSDL1 (UniProt Q3SXM5)
inactive: [1] 0.01 | [2] 0.072 | [3] -0.059 | [4] -0.025 | [5] -0.02 | [6] -0.013 | [7] 0.004 | [8] -0.001 | [9] -0.006 | [10] 0.014

HNRNPA3 (UniProt P51991)
inactive: [1] 0.095 | [2] -0.028 | [3] 0.288 | [4] 0.023 | [5] 0.104 | [6] 0.48 | [7] 0.361 | [8] 0.062 | [9] 0.095 | [10] -0.011

HSPD1 (UniProt P10809)
inactive: [1] 0.005 | [2] 0.038 | [3] 0.008 | [4] -0.025 | [5] -0.007 | [6] 0.009 | [7] -0.01 | [8] -0.053 | [9] -0.023 | [10] 0.03

HNRNPAB isoform 3 (UniProt Q99729)
inactive: [1] 0.066 | [2] 0.069 | [3] 0.254 | [4] 0.015 | [5] 0.041 | [6] 0.315 | [7] 0.224 | [8] -0.023 | [9] 0.024 | [10] 0.024

HSPA5 (UniProt P11021)
inactive: [1] 0.025 | [2] 0.024 | [3] -0.014 | [4] -0.037 | [5] 0.013 | [6] 0.003 | [7] -0.07 | [8] -0.012 | [9] 0.005 | [10] 0.038

HYOU1, A0A494C039
inactive: [1] -0.034 | [2] -0.253 | [3] -0.097 | [4] -0.069 | [5] -0.067 | [6] 0.074 | [7] 0.054 | [8] 0.006 | [9] 0.209 | [10] -0.159

HTRA2 (UniProt O43464)
inactive: [1] 0.039 | [2] -0.002 | [3] 0.022 | [4] 0.015 | [5] -0.018 | [6] -0.027 | [7] -0.02 | [8] -0.028 | [9] 0 | [10] 0

HIBADH (UniProt P31937)
inactive: [1] 0.036 | [2] 0.055 | [3] -0.043 | [4] 0.005 | [5] 0.018 | [6] 0.018 | [7] 0.003 | [8] -0.016 | [9] -0.025 | [10] 0.028
